Laboratory results as given in PubChem BioAssay AID2685 (National Center for Advancing Translational Sciences (NCATS), 2010).
The other results are listed elsewhere or left out. The main result of the screen is listed elsewhere. These columns were measured beside it and carry no call. Most of these compounds were active or inconclusive in the main read-out, so they are no random draw. Words in brackets tell the shape of the fitted curve; partial curves, single points and poor fits give uncertain potencies.

Assay: qHTS Assay for Lipid Storage Modulators in Drosophila S3 Cells;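 for cell number change: cells counted by Cell Tracker Red CMTPX staining in the red channel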
Details: BODIPY lipid droplet fluorescence, 18-24 h; for cell number change: measured here: cell count max response, cells fed with added oleic acid
Summary of the method: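 Drosophila S3 cells got compounds at several concentrations plus oleic acid (400 uM solution). Laser-scanning cytometry with 488 nm excitation read lipid droplets at 500-530 nm and cells at 575-640 nm. Percent activity was relative to 20 uM Triacsin C.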

[1] = measured here: lipid fluorescence (Fed channel) AC50, cells fed with added oleic acid
[2] = measured here: cell number channel AC50, cells fed with added oleic acid

In the case of `Cc1ccc(C)c(-n2nnnc2Sc2nnnn2-c2ccccc2)c1`, the AC50 [1] is reported as 0.0058 µM [falling, full curve, poor fit].
For `CC(=O)C(=Nc1ccccc1Cl)NNc1ccc(Cl)cc1`, the AC50 [1] was 13 µM [falling, partial curve].
`COCCN(C/C=C/c1ccccc1)C/C=C/c1ccccc1` showed a cell number change of 4.21%.
With `Cc1ccc2c(C)c(C(=O)Nc3cccnc3)oc2c1` the AC50 [1] was 6.51 µM [rising, single point].
With `CCNC(=S)N/N=C/c1cc(C)n(-c2ccc(Cl)cc2)c1C` the cell number change was 65% and the AC50 [1] was 29.1 µM [rising, single point].
In the case of `Cc1cc(N/C=C\c2nnnn2-c2ccccc2)no1`, the cell number change is reported as 4.15% and the AC50 [1] is reported as 3.66 µM [falling, full curve].
With `O=C(OCC(=O)N1CCN(c2ccccc2)CC1)c1cccs1` the cell number change was 54.2%, the AC50 [2] was 13 µM [rising, partial curve] and the AC50 [1] was 29.1 µM [rising, single point].
For `COc1c(C)cc(S(=O)(=O)N2CCCC2)c(C)c1C`, the cell number change was 55.2% and the AC50 [2] was 20.6 µM [rising, partial curve, poor fit].
In the case of `CCN(CC)c1ccc(NC(=O)C2=CCN(S(=O)(=O)c3ccc(F)cc3)CC2)c(C)c1`, the cell number change is reported as 3.17% and the AC50 [1] is reported as 8.2 µM [rising, partial curve].
With `[O-]/[N+](=C\c1ccccc1)[C@@H]1CCCC[C@@H]1/[N+]([O-])=C/c1ccccc1` the cell number change was 3.31% and the AC50 [1] was 3.26 µM [falling, single point].
In the case of `O=C(c1cccc(S(=O)(=O)Nc2ccccc2F)c1)N1CCN(c2ccccc2F)CC1`, the AC50 [2] is reported as 1.64 µM [rising, partial curve, poor fit].
For `Cc1cc(C)n(C(=O)/C(C#N)=N/Nc2cc(Cl)cc(Cl)c2)n1`, the cell number change was -67.5% and the AC50 [2] was 7.31 µM [falling, partial curve].
For `Cc1ccc(NC(=O)C2CCN(S(C)(=O)=O)CC2)cc1Cl`, the cell number change was -13.8% and the AC50 [1] was 32.6 µM [falling, single point].
For `O=S(=O)(c1cc(Cl)ccc1Cl)N1CCCCC1`, the cell number change was 49.5%, the AC50 [2] was 10.3 µM [rising, partial curve] and the AC50 [1] was 0.0164 µM [rising, full curve].
In the case of `O=C(Nc1ccc2c(c1)OCCO2)c1cc(-c2ccccn2)nc2ccc(Br)cc12`, the cell number change is reported as -55.8%, the AC50 [2] is reported as 20.6 µM [falling, partial curve] and the AC50 [1] is reported as 16.4 µM [falling, partial curve].
In the case of `CCN(CC)S(=O)(=O)c1ccc(NC(=O)c2ccc(OCC3CCCO3)cc2)cc1` (stereo unspecified), the cell number change is reported as -41.7%, the AC50 [2] is reported as 20.6 µM [falling, partial curve] and the AC50 [1] is reported as 0.291 µM [falling, partial curve, poor fit].
